Reference: publication PMC6365456
Results are given in words; binding and its absence hold for the method and conditions named. In cells and extracts the contact can be indirect. Some results given as binding are weak or reduced against the parent protein; the word gives no strength.

The chains behind the UniProt entries cited, without tags or fusion partners. Where a name states a change or a piece, a line headed by the entry shows the natural chain unless it says otherwise.
UniProt Q04206: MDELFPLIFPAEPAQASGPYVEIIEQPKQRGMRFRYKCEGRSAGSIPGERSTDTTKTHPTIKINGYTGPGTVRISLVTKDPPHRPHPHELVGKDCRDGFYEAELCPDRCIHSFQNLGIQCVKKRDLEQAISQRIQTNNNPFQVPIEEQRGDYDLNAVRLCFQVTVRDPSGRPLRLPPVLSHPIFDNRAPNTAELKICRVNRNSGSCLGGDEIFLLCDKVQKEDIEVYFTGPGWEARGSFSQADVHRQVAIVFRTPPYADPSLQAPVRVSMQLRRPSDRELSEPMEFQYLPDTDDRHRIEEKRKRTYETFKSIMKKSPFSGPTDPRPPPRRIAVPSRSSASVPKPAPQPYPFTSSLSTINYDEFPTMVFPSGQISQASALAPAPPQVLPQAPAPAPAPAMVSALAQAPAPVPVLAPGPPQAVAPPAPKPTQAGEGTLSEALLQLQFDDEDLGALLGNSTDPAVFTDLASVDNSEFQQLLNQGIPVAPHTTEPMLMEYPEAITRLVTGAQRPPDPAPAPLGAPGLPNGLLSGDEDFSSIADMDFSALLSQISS
UniProt O14543: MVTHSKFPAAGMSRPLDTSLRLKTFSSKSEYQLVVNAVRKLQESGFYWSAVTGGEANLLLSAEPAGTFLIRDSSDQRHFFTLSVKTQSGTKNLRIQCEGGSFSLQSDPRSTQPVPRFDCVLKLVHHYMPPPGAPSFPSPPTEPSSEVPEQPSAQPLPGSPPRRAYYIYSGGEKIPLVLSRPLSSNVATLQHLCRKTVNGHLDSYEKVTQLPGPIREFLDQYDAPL

Target: p65 (subunit of NF-κB complex) (human (endogenous in HEK-293T)) (UniProt Q04206)
Assay: co-IP; HEK-293T cell lysate (untransfected, or transfected with Myc-SOCS3 mutants) incubated with anti-p65 conjugated agarose resin (Pierce Direct IP kit) overnight at 4°C; eluted proteins analysed by western blotting

binding | Substance
binds | Myc-SOCS3 (34–185 aa) mutant (from UniProt O14543 34-185) (domain or fragment)
no binding | Myc-SOCS3 (129–225 aa) mutant lacking SH2 domain (from UniProt O14543 129-225) (domain or fragment)
binds | Suppressor of Cytokine Signaling 3 (SOCS3) (from UniProt O14543 1-225)
